Measured values as given in paper PMC10398660.
Results are given in words; binding and its absence hold for the method and conditions named. Binding seen in cells or lysates may run through a third protein. A yes stands for co-enrichment or nearness to the bait. Other partners may have been found. For some assays here: A no says only that the protein was not detected with the bait. Tags and fused reporters may be left off the sequences shown.

Chains of the proteins cited; added tags and fusions are not shown.
UniProt Q05086: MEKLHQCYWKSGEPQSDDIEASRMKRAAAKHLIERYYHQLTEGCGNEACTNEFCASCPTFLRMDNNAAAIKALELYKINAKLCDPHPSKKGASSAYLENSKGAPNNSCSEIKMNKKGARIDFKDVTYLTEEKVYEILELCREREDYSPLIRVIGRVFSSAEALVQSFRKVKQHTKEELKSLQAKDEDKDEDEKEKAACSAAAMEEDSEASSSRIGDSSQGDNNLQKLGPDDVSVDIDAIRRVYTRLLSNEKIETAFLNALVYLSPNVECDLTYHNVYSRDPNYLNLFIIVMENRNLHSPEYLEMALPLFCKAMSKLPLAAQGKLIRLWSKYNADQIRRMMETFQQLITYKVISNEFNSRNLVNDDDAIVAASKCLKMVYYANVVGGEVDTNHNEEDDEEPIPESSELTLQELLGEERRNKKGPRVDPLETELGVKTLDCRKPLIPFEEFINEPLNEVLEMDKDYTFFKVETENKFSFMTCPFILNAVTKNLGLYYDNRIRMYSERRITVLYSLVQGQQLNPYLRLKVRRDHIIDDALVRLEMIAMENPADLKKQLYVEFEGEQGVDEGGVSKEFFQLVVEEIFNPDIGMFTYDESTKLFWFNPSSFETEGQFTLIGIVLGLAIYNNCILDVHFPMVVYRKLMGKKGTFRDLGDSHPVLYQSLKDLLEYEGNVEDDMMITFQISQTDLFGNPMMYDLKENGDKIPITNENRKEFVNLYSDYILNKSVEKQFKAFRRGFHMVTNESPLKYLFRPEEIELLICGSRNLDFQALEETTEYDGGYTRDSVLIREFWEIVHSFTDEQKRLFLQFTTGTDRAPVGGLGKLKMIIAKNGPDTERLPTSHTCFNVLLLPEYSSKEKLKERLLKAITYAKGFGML
UniProt Q5T4S7: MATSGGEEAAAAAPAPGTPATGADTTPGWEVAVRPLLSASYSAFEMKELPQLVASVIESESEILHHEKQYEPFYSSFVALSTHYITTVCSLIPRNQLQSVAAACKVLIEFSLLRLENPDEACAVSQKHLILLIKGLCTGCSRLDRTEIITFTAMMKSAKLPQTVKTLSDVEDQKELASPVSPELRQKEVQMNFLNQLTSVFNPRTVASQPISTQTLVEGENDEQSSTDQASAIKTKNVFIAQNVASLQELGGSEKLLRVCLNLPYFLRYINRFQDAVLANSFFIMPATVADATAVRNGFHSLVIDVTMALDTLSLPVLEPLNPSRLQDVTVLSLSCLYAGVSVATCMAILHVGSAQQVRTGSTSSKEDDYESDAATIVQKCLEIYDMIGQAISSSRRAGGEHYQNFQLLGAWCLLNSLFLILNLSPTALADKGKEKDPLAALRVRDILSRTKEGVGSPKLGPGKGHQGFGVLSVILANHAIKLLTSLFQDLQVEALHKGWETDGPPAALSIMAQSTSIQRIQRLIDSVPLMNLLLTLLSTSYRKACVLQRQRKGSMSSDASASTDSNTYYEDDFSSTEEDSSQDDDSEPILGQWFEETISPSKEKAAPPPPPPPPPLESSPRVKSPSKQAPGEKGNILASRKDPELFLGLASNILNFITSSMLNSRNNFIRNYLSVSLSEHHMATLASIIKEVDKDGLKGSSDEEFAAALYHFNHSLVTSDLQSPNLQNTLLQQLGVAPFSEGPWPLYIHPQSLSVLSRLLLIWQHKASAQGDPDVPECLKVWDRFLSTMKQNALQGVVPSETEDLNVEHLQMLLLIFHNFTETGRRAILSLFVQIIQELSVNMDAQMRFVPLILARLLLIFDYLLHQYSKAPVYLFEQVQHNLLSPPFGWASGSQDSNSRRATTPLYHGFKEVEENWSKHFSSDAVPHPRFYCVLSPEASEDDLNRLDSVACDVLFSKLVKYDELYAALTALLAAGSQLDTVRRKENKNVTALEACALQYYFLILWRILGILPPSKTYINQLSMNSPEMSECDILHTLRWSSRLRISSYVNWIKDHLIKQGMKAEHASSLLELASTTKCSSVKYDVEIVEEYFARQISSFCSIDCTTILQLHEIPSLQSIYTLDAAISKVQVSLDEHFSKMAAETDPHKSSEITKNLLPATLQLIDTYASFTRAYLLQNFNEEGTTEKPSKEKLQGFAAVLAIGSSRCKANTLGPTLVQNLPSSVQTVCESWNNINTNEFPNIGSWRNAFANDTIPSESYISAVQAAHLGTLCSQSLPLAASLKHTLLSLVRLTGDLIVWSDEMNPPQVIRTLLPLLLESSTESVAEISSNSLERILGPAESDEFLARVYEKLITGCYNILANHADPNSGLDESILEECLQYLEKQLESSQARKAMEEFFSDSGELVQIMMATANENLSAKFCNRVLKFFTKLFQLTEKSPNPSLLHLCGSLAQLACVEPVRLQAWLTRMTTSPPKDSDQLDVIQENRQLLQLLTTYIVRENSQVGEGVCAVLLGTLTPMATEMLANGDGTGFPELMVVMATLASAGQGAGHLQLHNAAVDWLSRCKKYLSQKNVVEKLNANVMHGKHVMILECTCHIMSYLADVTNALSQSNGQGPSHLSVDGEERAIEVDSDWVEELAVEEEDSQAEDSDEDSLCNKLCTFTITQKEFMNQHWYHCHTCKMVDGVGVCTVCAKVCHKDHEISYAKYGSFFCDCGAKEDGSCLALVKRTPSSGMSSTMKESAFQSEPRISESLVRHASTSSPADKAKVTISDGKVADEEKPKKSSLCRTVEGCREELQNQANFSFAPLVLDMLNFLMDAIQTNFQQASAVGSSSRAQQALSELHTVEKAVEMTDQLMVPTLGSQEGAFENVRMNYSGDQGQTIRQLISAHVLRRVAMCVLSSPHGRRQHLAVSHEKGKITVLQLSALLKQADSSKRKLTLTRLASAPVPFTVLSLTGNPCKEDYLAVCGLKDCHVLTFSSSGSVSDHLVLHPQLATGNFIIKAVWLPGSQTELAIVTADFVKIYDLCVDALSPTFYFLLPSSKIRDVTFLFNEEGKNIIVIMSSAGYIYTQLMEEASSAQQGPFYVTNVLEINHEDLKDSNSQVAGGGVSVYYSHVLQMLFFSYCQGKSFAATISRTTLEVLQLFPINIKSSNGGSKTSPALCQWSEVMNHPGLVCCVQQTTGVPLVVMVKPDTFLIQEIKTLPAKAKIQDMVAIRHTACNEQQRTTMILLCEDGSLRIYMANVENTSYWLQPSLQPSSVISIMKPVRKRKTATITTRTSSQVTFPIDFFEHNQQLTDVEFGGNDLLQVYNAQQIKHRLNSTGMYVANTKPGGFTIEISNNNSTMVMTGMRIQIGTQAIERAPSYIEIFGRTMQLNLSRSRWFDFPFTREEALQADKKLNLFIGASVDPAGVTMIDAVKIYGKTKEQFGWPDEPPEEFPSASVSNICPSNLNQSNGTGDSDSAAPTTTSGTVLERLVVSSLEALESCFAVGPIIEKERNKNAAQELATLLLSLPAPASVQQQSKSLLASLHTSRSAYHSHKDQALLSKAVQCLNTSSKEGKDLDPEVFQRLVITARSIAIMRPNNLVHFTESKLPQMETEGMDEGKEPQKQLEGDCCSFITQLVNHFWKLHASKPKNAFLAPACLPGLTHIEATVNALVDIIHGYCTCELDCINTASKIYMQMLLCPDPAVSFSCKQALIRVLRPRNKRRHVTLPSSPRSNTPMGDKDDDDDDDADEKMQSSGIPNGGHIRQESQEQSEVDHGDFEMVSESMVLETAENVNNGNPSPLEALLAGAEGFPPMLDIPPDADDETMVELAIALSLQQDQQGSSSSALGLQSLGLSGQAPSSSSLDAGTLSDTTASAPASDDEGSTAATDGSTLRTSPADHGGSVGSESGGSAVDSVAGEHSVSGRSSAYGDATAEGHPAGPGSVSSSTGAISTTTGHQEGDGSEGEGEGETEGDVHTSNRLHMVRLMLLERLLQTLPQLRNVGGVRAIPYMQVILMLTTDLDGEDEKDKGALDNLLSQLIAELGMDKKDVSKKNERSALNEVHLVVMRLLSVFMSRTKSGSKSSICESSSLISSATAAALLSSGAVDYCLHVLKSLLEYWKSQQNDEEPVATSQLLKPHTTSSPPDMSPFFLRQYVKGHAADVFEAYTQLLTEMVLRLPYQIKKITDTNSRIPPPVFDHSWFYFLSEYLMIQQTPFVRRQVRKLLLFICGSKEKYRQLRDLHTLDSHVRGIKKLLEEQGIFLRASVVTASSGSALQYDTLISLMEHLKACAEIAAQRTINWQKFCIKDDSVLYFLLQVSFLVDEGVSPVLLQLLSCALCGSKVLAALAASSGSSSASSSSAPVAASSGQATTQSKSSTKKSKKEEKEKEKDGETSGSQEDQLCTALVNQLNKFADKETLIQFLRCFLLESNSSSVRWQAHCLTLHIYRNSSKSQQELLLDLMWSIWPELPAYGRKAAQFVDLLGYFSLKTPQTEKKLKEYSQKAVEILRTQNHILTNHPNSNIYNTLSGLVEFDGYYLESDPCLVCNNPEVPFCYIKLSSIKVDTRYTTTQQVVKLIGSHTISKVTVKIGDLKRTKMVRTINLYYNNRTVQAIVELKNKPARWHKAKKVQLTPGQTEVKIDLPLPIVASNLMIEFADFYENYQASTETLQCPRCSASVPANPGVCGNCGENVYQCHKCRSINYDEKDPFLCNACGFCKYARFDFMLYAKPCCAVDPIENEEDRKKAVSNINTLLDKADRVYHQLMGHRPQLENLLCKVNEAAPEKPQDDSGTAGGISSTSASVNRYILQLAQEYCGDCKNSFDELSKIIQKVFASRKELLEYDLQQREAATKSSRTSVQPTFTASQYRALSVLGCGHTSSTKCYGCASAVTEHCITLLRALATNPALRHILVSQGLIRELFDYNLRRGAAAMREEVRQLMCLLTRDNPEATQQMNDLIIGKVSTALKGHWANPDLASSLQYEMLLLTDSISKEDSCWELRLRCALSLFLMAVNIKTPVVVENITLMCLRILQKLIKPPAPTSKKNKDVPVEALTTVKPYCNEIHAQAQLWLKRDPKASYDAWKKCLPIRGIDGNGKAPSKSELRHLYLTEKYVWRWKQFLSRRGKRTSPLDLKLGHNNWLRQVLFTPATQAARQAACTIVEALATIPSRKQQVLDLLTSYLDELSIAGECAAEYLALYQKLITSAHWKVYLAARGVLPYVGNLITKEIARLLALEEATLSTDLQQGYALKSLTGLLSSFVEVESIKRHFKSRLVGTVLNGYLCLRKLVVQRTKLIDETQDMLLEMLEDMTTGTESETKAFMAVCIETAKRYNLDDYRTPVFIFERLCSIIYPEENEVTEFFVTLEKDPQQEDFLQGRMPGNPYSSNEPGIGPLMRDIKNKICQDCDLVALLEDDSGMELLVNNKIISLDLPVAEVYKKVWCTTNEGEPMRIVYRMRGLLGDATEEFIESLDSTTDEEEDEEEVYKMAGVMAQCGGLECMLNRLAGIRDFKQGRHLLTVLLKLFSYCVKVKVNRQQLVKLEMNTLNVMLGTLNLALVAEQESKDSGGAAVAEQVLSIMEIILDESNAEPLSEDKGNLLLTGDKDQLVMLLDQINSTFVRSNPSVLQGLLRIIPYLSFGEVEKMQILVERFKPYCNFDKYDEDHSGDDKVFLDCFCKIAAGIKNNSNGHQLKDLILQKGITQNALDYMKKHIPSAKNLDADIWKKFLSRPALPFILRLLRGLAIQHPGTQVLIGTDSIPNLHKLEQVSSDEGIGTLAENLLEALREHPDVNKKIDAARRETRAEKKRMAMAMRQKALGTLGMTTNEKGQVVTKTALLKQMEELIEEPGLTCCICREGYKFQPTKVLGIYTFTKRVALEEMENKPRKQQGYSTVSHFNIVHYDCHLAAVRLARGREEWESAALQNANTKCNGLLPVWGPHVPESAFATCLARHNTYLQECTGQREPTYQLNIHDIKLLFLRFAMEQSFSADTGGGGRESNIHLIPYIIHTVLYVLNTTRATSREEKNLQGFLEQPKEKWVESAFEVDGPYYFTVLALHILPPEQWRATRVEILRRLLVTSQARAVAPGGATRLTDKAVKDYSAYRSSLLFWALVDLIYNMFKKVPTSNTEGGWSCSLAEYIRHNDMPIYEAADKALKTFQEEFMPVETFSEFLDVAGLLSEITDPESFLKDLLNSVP
UniProt Q7L5D6: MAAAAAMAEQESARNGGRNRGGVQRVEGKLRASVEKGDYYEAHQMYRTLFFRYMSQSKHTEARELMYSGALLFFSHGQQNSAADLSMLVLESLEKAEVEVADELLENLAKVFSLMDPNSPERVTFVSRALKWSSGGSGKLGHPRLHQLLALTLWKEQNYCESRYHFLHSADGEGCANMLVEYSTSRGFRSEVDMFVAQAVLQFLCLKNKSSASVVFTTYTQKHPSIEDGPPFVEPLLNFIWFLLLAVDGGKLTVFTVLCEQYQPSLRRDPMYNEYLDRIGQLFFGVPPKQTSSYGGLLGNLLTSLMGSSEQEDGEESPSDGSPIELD

B1: UBL4A, endogenous (protein, UniProt P11441 1-157)
chain: MQLTVKALQGRECSLQVPEDELVSTLKQLVSEKLNVPVRQQRLLFKGKALADGKRLSDYSIGPNSKLNLVVKPLEKVLLEEGEAQRLADSPPPQVWQLISKVLARHFSAADASRVLEQLQRDYERSLSRLTLDDIERLASRFLHPEVTETMEKGFSK
B2: MARCH7, endogenous (enzyme, UniProt Q9H992 1-704)
chain: MESKPSRIPRRISVQPSSSLSARMMSGSRGSSLNDTYHSRDSSFRLDSEYQSTSASASASPFQSAWYSESEITQGARSRSQNQQRDHDSKRPKLSCTNCTTSAGRNVGNGLNTLSDSSWRHSQVPRSSSMVLGSFGTDLMRERRDLERRTDSSISNLMDYSHRSGDFTTSSYVQDRVPSYSQGARPKENSMSTLQLNTSSTNHQLPSEHQTILSSRDSRNSLRSNFSSRESESSRSNTQPGFSYSSSRDEAPIISNSERVVSSQRPFQESSDNEGRRTTRRLLSRIASSMSSTFFSRRSSQDSLNTRSLNSENSYVSPRILTASQSRSNVPSASEVPDNRASEASQGFRFLRRRWGLSSLSHNHSSESDSENFNQESEGRNTGPWLSSSLRNRCTPLFSRRRREGRDESSRIPTSDTSSRSHIFRRESNEVVHLEAQNDPLGAAANRPQASAASSSATTGGSTSDSAQGGRNTGISGILPGSLFRFAVPPALGSNLTDNVMITVDIIPSGWNSADGKSDKTKSAPSRDPERLQKIKESLLLEDSEEEEGDLCRICQMAAASSSNLLIEPCKCTGSLQYVHQDCMKKWLQAKINSGSSLEAVTTCELCKEKLELNLEDFDIHELHRAHANEQAEYEFISSGLYLVVLLHLCEQSFSDMMGNTNEPSTRVRFINLARTLQAHMEDLETSEDDSEEDGDHNRTFDIA
B3: RLIM, endogenous (enzyme, UniProt Q9NVW2 1-624)
chain: MENSDSNDKGSGDQSAAQRRSQMDRLDREEAFYQFVNNLSEEDYRLMRDNNLLGTPGESTEEELLRRLQQIKEGPPPQNSDENRGGDSSDDVSNGDSIIDWLNSVRQTGNTTRSGQRGNQSWRAVSRTNPNSGDFRFSLEINVNRNNGSQNSENENEPSARRSSGENVENNSQRQVENPRSESTSARPSRSERNSTEALTEVPPTRGQRRARSRSPDHRRTRARAERSRSPLHPMSEIPRRSHHSISSQTFEHPLVNETEGSSRTRHHVTLRQQISGPELLSRGLFAASGTRNASQGAGSSDTAASGESTGSGQRPPTIVLDLQVRRVRPGEYRQRDSIASRTRSRSQTPNNTVTYESERGGFRRTFSRSERAGVRTYVSTIRIPIRRILNTGLSETTSVAIQTMLRQIMTGFGELSYFMYSDSDSEPTGSVSNRNMERAESRSGRGGSGGGSSSGSSSSSSSSSSSSSSSSSSSSPSSSSGGESSETSSDLFEGSNEGSSSSGSSGARREGRHRAPVTFDESGSLPFLSLAQFFLLNEDDDDQPRGLTKEQIDNLAMRSFGENDALKTCSVCITEYTEGNKLRKLPCSHEYHVHCIDRWLSENSTCPICRRAVLASGNRESVV

These molecules were tested against T1, C9orf72-HA (C-terminal HA-tagged C9orf72) (UniProt Q96LT7) (assay: affinity purification with mass spectrometry; HA-IP (anti-HA beads, overnight, 4°C) from C9orf72-HA expressing 293T SMCR8 KO cells treated with DMSO or Btz (1 μM, 8 h); MCLB buffer (50 mM Tris-HCl pH 7.4, 150 mM NaCl, 0.5% NP-40); eluted with HA peptide; label-free quantification, Btz against DMSO).
T1 sequence: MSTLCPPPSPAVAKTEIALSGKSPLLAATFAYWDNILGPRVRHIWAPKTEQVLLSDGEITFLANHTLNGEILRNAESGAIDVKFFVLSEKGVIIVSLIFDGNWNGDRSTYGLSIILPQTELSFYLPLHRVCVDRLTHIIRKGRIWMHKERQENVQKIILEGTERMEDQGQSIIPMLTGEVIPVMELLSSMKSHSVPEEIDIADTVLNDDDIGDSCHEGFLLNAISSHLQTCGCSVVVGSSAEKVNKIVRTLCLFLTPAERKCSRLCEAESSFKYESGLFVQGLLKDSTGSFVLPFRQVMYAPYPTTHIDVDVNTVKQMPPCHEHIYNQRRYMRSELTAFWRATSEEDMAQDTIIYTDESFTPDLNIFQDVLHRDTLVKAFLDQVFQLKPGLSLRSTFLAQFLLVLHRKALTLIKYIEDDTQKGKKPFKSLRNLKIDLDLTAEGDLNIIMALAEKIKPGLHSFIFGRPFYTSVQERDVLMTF
“UBE3A, endogenous (from UniProt Q05086 1-875) (enzyme)” was tested, and the binding was “binds”. With “UBR5 (E3 ligase), endogenous (from UniProt O95071 1-2799) (enzyme)” the binding was “binds”. With “VCP, endogenous (from UniProt P55072 1-806)” the binding was “binds”. In the case of “UBR4, endogenous (from UniProt Q5T4S7 1-5183) (enzyme)”, the binding is reported as “no binding”. With “HECTD1, endogenous (from UniProt Q9ULT8 1-2610) (enzyme)” the binding was “binds”. For “BAG6, endogenous (from UniProt P46379 1-1132)”, the binding was “binds”. “RAD23B, endogenous (from UniProt P54727 1-409)” was tested, and the binding was “binds”. “GET4, endogenous (from UniProt Q7L5D6 1-327)” was tested, and the binding was “binds”.

Molecular target: T1, C9orf72-HA (C-terminal HA-tagged C9orf72)
Assay: as above
Remark: another data set of the same source
With B1 the binding was “binds”. In the case of B2, the binding is reported as “binds”. For B3, the binding was “binds”.
